This note sets out measurements from paper doi:10.1101/2023.02.22.529570 (bioRxiv, 2023).

The chains behind the UniProt entries cited, without tags or fusion partners. Where a name states a change or a piece, a line headed by the entry shows the natural chain unless it says otherwise. A line that says so, or that is headed by a name, gives the form on record, which may keep a tag or linker. Residues count along the entry.
UniProt Q15599: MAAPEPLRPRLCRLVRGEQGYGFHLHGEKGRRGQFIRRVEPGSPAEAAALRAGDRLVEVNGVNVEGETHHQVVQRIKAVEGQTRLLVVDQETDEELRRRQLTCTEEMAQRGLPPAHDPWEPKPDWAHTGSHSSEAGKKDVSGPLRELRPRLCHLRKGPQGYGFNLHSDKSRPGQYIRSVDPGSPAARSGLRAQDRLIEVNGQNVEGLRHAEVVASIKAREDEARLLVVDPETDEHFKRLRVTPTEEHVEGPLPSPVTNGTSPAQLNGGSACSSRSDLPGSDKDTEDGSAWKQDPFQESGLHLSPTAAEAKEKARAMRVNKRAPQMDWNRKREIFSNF
myc-tagged E3KARP-FL ΔPBM: residues 1-329 of Q15599
myc-tagged E3KARP-PDZ12: residues 1-284 of Q15599
myc-tagged E3KARP-PDZ2: residues 150-284 of Q15599
UniProt P15311: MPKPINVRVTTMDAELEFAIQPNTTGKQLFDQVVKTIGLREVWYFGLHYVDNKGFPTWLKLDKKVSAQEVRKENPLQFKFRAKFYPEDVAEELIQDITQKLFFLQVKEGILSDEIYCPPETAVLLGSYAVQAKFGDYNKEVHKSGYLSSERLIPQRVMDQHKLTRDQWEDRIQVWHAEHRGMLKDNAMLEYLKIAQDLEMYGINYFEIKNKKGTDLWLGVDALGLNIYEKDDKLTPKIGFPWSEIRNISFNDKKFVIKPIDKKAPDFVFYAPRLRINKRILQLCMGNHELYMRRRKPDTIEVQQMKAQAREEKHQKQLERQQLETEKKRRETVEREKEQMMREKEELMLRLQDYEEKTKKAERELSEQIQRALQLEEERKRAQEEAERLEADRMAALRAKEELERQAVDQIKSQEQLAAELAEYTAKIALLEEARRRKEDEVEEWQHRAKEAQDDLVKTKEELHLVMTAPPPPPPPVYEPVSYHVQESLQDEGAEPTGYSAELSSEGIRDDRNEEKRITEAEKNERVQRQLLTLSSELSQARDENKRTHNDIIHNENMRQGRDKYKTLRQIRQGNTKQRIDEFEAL

Like-named read-outs stand apart in the source and are kept apart here. No constants are given. Whether binding was seen depends on the method and setting. For some assays here: Binding seen in cells or lysates may run through a third protein. Some binding calls cover weakened binding; strength is not graded here. For some assays here: Tags and fused reporters may be left off the sequences shown.

Holding throughout (assay): pull-down
Test [1] concerns the target T1, GST-CDHR5 CD (human) (UniProt Q9HBB8).
T1 sequence: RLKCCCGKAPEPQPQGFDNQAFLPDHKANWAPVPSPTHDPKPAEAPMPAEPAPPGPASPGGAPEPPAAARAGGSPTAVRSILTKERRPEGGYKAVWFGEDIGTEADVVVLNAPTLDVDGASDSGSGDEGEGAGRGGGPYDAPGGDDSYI

The target in test [2] is T1, GST-CDHR5 CD (human). The source holds these as a separate data set.
In test [3] the target is T1, GST-CDHR5 CD (human). This is another data set of the same source.
In test [4] the target is myc-tagged E3KARP full-length (human) (UniProt Q15599).
Test [5] addresses T2, GST-CDHR5 CD I845R (human) (UniProt Q9HBB8).
T2 sequence: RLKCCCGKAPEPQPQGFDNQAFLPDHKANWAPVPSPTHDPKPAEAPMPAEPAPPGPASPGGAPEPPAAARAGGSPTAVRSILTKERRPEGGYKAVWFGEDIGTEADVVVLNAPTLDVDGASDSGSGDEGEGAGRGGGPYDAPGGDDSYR

With “myc-tagged EBP50-PDZ1 (from UniProt O14745-1 1-148) (domain or fragment)”, the binding entry in test [1] is listed as “binds”.
Turning to “myc-tagged E3KARP-FL ΔPBM (from UniProt Q15599-1 1-329) (domain or fragment)”, the binding entry in test [1] is given as “binds”.
As for “EGFP-tagged Ezrin-WT (from UniProt P15311 1-586)”, the binding result in test [1] and in test [2] was “no binding” each time.
On to “myc-tagged E3KARP full-length (from UniProt Q15599-1 1-337)”, for which the binding result is “binds weakly” in test [3] and “binds” in test [1].
Turning to “myc-tagged E3KARP-PDZ2 (from UniProt Q15599-1 150-284) (domain or fragment)”, the binding entry in test [1] was “binds”.
Take “EGFP-tagged Ezrin-NERMAD (isolated FERM domain) (from UniProt P15311 1-297) (domain or fragment)”: the binding result in test [4] was “binds”.
“EGFP-tagged Ezrin-T567D (from UniProt P15311 1-586)”: the binding result in test [1] and in test [2] was “no binding” in each case.
Take “myc-tagged EBP50-FL ΔPBM (from UniProt O14745-1 1-353) (domain or fragment)”: the binding entry in test [1] was “binds”.
As for “myc-tagged E3KARP-PDZ12 (from UniProt Q15599-1 1-284) (domain or fragment)”, in test [1], the binding entry is “binds”.

B1: myc-tagged EBP50-PDZ12 (domain or fragment, UniProt O14745-1 1-298)
chain: MSADAAAGAPLPRLCCLEKGPNGYGFHLHGEKGKLGQYIRLVEPGSPAEKAGLLAGDRLVEVNGENVEKETHQQVVSRIRAALNAVRLLVVDPETDEQLQKLGVQVREELLRAQEAPGQAEPPAAAEVQGAGNENEPREADKSHPEQRELRPRLCTMKKGPSGYGFNLHSDKSKPGQFIRSVDPDSPAEASGLRAQDRIVEVNGVCMEGKQHGDVVSAIRAGGDETKLLVVDRETDEFFKKCRVIPSQEHLNGPLPVPFTNGEIQKENSREALAEAALESPRPALVRSASSDTSEELN
Take B1: the binding entry in test [1] is on record as “binds”.

B2: His-NEON-EBP50 PDZ1PDZ2 (domain or fragment, UniProt O14745-1 1-298)
chain: MSADAAAGAPLPRLCCLEKGPNGYGFHLHGEKGKLGQYIRLVEPGSPAEKAGLLAGDRLVEVNGENVEKETHQQVVSRIRAALNAVRLLVVDPETDEQLQKLGVQVREELLRAQEAPGQAEPPAAAEVQGAGNENEPREADKSHPEQRELRPRLCTMKKGPSGYGFNLHSDKSKPGQFIRSVDPDSPAEASGLRAQDRIVEVNGVCMEGKQHGDVVSAIRAGGDETKLLVVDRETDEFFKKCRVIPSQEHLNGPLPVPFTNGEIQKENSREALAEAALESPRPALVRSASSDTSEELN
Take B2: in test [5], the binding result is recorded as “no binding”.
